The values below come from doi:10.1101/2020.04.03.023861.

Amino acid sequences for entries named in this document (tags omitted). A change or cut given only in a name is not applied to a line headed by its entry.
UniProt P25705: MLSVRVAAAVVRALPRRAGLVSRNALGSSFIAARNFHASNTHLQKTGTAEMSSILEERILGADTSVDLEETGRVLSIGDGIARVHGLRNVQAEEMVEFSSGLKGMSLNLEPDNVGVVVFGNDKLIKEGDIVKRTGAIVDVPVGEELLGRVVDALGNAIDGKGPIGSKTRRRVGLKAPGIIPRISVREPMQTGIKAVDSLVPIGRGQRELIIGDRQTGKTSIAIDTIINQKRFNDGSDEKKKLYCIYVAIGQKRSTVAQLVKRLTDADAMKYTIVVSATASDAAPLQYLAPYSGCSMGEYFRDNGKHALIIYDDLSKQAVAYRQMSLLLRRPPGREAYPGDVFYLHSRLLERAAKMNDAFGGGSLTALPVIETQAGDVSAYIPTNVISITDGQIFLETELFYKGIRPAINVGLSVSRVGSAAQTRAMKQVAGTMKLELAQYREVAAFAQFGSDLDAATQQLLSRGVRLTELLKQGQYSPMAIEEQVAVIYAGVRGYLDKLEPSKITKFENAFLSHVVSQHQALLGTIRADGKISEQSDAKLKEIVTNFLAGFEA

The target in assay [1] is T1, TMEM70 (endogenous) (human (endogenous in HEK293T and 143B)) (UniProt Q9BUB7).
T1 sequence: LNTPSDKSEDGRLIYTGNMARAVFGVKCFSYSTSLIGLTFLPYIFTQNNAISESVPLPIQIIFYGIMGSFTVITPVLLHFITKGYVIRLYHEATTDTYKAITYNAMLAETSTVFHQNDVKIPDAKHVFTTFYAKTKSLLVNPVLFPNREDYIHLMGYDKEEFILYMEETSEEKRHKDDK
Briefly: native gel or EMSA.

For assay [2], the target named is fully assembled ATP synthase (human (endogenous in HEK293T and 143B)) (UniProt P25705). The experiment in a line: native gel or EMSA. For orientation: In EMSA bound probe runs differently from free probe, usually more slowly.
Assay [3] deals with T1, TMEM70 (endogenous) (human (endogenous in HEK293T and 143B)). Briefly: native gel or EMSA. The source holds these as a separate data set.
Assay [4] has as its target fully assembled ATP synthase (human (endogenous in HEK293T and 143B)) (UniProt P25705). The experiment in a line: native gel or EMSA. The source holds these as a separate data set.
Assay [5] deals with T1, TMEM70 (endogenous) (human (endogenous in HEK293T and 143B)). The experiment in a line: native gel or EMSA. This is another data set of the same source.
Assay [6] has as its target T2, TMEM70 (untagged, exogenous) (human) (UniProt Q9BUB7).
T2 sequence: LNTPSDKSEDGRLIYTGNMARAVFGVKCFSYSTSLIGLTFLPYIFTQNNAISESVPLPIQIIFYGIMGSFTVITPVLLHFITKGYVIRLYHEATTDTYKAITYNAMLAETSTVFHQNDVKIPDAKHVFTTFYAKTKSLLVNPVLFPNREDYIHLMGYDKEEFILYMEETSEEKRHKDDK
Briefly: native gel or EMSA.

Assay [7] concerns the target T2, TMEM70 (untagged, exogenous) (human). Briefly: detergent-resistant band of doubled size on SDS-PAGE and western blot.
Assay [8] deals with T3, TMEM70-FLAG (human) (UniProt Q9BUB7).
T3 sequence: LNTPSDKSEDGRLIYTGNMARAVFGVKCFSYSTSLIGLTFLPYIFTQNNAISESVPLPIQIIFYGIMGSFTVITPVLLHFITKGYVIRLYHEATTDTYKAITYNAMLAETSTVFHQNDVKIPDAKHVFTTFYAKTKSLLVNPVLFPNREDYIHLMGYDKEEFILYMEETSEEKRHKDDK
Briefly: co-IP + native gel or EMSA.

The target of assay [9] is T3, TMEM70-FLAG (human). Briefly: native gel or EMSA.

Like-named read-outs stand apart in the source and are kept apart here. No constants are given. Whether binding was seen depends on the method and setting. For some assays here: In cells and extracts the contact can be indirect. Some entries that bind do so weakly or less than the wild type. For some assays here: Sequences can lack the tags named with a protein.

B1: TMEM70 (endogenous) (protein, UniProt Q9BUB7 82-260)
chain: LNTPSDKSEDGRLIYTGNMARAVFGVKCFSYSTSLIGLTFLPYIFTQNNAISESVPLPIQIIFYGIMGSFTVITPVLLHFITKGYVIRLYHEATTDTYKAITYNAMLAETSTVFHQNDVKIPDAKHVFTTFYAKTKSLLVNPVLFPNREDYIHLMGYDKEEFILYMEETSEEKRHKDDK
For B1, the binding entry is “binds” in assay [1]; “no binding” in [2]; “binds” in assay [3]; “no binding” in assay [4]; “binds” in [5].

B2: TMEM70 (untagged, exogenous) (protein, UniProt Q9BUB7 82-260)
chain: LNTPSDKSEDGRLIYTGNMARAVFGVKCFSYSTSLIGLTFLPYIFTQNNAISESVPLPIQIIFYGIMGSFTVITPVLLHFITKGYVIRLYHEATTDTYKAITYNAMLAETSTVFHQNDVKIPDAKHVFTTFYAKTKSLLVNPVLFPNREDYIHLMGYDKEEFILYMEETSEEKRHKDDK
Regarding B2, the binding result is on record as “no binding” in assay [2], “binds” in [6] and “binds” in assay [7].

B3: TMEM70-FLAG (protein, UniProt Q9BUB7 82-260)
chain: LNTPSDKSEDGRLIYTGNMARAVFGVKCFSYSTSLIGLTFLPYIFTQNNAISESVPLPIQIIFYGIMGSFTVITPVLLHFITKGYVIRLYHEATTDTYKAITYNAMLAETSTVFHQNDVKIPDAKHVFTTFYAKTKSLLVNPVLFPNREDYIHLMGYDKEEFILYMEETSEEKRHKDDK
Turning to B3, the values for the binding result (in the assay with TMEM70-FLAG (human) [8]; with TMEM70-FLAG (human) [9]; in [2]) were “binds”, “binds” and “no binding”, respectively.
